Reference: paper PMC10887080

Protein sequences, listed by entry. Tags and fused reporters are not part of them. Lines headed by an entry give the natural chain unless they say otherwise; changes in a name come on top. Residues count along the entry.
UniProt P07954, residues 45-510: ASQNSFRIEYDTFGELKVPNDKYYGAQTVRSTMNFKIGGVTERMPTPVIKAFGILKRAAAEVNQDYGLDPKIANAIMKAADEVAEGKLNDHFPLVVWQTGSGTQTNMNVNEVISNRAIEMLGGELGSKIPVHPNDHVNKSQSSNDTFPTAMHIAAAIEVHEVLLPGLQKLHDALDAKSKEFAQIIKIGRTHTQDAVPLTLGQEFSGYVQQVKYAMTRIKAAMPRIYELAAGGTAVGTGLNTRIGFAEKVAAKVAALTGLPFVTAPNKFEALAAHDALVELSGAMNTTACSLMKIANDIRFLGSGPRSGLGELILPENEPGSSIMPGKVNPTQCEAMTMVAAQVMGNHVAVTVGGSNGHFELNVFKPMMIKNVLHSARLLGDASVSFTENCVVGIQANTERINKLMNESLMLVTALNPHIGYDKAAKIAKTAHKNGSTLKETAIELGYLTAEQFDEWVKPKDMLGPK
UniProt Q8NBP7: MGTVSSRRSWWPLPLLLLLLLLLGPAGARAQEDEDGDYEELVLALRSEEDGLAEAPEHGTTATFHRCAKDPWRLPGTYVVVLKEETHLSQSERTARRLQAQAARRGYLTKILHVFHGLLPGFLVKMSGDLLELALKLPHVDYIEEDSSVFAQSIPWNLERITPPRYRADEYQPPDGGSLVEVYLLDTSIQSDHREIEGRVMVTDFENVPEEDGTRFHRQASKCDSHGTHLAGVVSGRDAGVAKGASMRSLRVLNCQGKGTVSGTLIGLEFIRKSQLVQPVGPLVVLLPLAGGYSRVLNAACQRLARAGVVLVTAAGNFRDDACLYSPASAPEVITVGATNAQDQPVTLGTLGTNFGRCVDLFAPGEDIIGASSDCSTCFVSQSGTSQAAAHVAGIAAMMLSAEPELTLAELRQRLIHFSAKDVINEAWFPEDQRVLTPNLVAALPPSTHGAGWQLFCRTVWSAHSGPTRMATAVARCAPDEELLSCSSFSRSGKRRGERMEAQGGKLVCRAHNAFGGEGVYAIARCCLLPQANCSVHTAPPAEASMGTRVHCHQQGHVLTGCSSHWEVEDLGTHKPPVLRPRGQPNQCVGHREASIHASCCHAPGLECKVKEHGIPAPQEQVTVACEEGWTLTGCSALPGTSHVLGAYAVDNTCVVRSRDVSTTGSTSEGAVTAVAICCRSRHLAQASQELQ

Molecular target: Fumarate hydratase (human (endogenous in HCT116)) (UniProt P07954)
Assay: co-IP; HCT116 cells lysed in IP lysis buffer with phosphorylase inhibitor and PMSF; supernatant, antibody and protein A/G agarose beads overnight at 4 °C; immunoblot; also done in FH knockdown HCT116 cells (binding of Ran to SREBF1 and SREBF2 increased)

“protein invertase subtilisin/kexin 9 (from UniProt Q8NBP7)” was tested, and the binding was “no binding”.

These are yes or no findings as the source states them, for the method shown. Binding seen in cells or lysates may run through a third protein.
